Experimental findings from the supplement of paper PMC10849652 are described below.

Protein sequences, listed by entry. Tags and fused reporters are not part of them. Lines headed by an entry give the natural chain unless they say otherwise; changes in a name come on top.
UniProt P24390: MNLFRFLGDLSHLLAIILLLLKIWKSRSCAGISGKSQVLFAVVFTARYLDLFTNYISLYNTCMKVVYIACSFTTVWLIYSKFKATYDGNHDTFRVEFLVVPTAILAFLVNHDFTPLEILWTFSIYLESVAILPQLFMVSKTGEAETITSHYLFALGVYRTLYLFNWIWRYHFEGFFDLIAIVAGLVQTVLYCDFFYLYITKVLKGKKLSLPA
UniProt Q8NC54: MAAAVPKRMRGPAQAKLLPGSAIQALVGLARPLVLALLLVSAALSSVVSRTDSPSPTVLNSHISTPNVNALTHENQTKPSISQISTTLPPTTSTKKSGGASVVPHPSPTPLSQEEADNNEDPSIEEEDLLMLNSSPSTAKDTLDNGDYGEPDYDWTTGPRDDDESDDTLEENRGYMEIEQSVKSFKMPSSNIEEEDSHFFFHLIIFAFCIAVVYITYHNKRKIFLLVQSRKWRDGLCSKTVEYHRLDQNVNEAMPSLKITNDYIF
UniProt Q7Z4S6: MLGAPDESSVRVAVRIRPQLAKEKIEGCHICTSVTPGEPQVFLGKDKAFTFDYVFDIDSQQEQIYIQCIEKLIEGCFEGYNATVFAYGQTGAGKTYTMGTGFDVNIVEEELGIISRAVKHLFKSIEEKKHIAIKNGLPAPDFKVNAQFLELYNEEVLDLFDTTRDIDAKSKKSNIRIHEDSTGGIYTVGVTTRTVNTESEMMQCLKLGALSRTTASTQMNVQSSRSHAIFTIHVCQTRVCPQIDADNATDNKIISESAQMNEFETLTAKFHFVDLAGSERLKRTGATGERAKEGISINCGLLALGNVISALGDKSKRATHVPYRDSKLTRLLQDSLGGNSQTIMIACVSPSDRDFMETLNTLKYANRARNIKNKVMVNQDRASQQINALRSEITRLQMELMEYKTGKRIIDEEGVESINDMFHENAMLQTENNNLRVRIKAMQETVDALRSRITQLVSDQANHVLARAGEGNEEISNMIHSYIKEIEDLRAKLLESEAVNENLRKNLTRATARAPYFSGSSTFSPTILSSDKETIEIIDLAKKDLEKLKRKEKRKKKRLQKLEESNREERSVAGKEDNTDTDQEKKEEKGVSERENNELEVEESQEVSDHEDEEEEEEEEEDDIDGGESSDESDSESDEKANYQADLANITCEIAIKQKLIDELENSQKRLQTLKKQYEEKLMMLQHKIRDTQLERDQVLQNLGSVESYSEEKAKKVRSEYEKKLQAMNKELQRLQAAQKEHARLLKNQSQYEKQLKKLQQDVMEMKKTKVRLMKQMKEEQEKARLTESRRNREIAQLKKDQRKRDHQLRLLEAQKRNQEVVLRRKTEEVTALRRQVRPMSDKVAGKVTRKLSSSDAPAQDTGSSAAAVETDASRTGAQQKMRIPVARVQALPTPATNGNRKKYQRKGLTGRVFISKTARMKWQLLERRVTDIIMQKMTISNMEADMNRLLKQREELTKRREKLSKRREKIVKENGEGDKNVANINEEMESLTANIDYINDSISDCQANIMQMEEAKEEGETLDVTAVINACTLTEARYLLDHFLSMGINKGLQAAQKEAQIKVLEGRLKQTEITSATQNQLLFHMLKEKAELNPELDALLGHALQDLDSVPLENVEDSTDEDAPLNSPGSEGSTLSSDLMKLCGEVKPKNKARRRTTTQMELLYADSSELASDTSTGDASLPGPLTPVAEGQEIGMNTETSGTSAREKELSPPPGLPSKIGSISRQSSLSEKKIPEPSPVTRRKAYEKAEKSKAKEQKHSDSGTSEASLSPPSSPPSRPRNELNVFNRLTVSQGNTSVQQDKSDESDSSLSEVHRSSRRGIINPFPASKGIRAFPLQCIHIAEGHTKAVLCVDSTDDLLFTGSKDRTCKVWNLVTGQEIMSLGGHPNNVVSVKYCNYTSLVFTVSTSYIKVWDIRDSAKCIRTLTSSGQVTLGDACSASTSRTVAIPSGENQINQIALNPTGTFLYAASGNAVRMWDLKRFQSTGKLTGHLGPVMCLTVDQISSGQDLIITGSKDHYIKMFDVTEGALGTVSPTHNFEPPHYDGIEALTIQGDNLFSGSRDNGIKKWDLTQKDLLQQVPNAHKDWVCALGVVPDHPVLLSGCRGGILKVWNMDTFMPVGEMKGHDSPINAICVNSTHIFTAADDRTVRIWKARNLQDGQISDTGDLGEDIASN
UniProt Q8NB78: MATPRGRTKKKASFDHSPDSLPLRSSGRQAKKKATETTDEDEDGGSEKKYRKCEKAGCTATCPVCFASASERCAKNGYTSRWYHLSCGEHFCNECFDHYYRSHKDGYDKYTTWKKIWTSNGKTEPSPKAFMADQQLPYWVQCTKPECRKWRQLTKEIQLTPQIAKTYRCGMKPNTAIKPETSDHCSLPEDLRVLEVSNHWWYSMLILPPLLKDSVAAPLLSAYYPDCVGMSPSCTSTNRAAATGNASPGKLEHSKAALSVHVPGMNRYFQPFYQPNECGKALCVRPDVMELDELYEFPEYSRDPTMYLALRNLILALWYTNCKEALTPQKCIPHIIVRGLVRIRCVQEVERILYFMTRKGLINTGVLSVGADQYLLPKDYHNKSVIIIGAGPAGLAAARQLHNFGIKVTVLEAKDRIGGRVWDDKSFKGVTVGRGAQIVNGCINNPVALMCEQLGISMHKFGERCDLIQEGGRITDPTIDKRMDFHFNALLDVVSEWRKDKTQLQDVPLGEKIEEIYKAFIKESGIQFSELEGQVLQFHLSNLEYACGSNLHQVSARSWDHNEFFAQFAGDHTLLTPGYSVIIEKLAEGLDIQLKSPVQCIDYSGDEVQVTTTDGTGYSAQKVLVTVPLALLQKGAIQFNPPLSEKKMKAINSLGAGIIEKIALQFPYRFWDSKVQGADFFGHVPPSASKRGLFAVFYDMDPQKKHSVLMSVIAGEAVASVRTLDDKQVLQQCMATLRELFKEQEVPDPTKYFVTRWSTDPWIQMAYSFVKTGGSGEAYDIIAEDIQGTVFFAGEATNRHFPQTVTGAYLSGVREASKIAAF
UniProt O94889: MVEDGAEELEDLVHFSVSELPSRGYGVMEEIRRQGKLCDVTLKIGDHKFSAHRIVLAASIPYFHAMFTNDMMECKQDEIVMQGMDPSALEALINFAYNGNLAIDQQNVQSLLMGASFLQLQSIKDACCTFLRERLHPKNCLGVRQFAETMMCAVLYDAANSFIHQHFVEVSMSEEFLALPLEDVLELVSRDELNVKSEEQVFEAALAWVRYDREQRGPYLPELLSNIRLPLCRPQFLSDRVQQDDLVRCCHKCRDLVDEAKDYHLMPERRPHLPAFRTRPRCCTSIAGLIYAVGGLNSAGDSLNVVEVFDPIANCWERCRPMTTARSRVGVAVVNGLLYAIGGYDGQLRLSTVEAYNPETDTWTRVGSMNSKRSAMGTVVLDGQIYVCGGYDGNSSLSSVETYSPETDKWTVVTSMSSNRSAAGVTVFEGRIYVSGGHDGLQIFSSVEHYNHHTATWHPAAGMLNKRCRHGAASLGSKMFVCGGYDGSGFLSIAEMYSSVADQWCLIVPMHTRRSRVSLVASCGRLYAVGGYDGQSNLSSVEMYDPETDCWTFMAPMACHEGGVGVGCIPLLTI
UniProt Q96EK5: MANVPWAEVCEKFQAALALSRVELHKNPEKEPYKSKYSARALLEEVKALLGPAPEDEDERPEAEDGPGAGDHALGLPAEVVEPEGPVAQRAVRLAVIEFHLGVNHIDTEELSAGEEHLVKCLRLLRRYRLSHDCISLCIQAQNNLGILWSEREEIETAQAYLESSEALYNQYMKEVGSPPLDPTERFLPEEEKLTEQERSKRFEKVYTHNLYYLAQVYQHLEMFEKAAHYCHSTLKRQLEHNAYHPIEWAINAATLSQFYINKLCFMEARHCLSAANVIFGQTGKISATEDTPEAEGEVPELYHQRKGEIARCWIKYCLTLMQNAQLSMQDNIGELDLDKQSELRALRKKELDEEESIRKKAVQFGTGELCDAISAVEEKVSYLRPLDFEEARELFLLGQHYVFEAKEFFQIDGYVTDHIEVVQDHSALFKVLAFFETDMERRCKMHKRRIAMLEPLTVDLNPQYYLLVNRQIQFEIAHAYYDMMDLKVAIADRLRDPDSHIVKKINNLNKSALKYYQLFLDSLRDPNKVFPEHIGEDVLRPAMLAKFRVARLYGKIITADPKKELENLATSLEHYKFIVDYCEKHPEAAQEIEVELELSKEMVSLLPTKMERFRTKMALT
UniProt Q1ED39: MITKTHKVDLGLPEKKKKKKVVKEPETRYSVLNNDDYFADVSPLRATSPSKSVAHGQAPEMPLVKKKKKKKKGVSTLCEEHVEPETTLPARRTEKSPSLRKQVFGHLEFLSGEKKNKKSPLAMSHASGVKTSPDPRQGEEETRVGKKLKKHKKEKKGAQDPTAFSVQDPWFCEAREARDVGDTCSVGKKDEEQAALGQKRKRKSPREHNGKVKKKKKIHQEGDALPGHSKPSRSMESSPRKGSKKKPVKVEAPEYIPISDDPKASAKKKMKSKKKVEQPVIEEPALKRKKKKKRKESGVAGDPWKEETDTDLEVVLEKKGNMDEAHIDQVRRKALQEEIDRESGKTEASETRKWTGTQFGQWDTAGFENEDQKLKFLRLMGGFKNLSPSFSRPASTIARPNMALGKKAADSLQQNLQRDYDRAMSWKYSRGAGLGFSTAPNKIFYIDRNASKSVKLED
UniProt Q9Y664: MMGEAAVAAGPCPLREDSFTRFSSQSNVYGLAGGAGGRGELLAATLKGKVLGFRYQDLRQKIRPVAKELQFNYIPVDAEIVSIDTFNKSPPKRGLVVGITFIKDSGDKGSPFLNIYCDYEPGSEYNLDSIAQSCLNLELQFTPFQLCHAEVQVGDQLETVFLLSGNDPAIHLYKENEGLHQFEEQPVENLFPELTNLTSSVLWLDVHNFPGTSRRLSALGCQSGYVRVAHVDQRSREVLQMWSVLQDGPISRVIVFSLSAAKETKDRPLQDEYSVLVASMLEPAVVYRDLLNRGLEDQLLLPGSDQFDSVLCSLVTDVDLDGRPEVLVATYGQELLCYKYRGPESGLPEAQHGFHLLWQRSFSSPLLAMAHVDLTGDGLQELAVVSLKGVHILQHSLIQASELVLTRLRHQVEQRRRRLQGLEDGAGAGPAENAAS
UniProt Q5JYT7: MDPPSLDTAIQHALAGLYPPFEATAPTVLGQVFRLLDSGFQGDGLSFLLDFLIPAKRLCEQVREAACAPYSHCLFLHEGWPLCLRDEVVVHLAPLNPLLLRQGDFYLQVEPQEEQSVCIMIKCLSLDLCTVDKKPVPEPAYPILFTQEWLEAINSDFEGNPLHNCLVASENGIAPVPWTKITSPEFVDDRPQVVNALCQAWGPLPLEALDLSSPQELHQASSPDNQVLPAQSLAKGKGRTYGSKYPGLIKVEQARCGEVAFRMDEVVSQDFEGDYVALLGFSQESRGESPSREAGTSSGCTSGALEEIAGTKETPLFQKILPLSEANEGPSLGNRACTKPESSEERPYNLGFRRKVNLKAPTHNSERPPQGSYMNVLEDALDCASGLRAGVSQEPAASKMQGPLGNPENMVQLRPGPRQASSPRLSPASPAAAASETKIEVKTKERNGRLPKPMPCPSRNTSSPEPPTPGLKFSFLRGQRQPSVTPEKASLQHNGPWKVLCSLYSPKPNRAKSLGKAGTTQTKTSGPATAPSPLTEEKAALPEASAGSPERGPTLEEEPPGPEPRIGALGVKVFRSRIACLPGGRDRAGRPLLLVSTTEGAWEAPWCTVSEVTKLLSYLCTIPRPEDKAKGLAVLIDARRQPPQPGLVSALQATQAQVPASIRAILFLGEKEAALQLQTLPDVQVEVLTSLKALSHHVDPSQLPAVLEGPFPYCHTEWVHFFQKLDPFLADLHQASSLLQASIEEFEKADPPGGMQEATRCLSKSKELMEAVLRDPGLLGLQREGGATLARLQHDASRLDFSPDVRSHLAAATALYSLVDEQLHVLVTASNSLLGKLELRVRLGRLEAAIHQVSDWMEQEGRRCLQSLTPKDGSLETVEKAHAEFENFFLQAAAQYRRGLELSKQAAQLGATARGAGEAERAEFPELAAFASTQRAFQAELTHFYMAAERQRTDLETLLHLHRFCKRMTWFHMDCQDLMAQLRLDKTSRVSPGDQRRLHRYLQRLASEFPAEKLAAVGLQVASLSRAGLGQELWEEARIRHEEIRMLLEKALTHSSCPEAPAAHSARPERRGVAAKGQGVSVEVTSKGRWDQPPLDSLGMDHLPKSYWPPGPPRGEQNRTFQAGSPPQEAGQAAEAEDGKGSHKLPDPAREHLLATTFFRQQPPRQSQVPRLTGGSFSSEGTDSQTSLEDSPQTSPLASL
UniProt Q9H3F6: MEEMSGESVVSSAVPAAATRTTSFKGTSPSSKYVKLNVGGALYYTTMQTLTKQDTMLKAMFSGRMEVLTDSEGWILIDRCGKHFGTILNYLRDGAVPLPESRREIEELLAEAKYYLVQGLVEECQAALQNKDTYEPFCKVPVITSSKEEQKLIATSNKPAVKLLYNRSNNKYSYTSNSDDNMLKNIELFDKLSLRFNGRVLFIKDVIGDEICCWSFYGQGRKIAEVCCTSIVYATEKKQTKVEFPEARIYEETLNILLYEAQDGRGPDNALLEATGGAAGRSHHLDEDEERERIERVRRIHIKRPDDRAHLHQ

Some of the results follow.

Compound in the first assay: CN1CCN(c2nc(C3=C(c4c[nH]c5ccccc45)C(=O)NC3=O)c3ccccc3n2)CC1 [sotrastaurin]
The assay is described as follows: log2 fold change, soluble protein after heating vs DMSO (PISA); higher = thermal stabilisation; K562 cells, 10 uM, 30 min; active = over 0.2 and 3.5 SD of the protein, either way, in both replicates (recomputed). An outline of the steps: (§1)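 Aliquots of K562 cells (2×10^6 cells/mL) treated with 10 μM compound for 30 min were heated for 3 min over 48°C-58°C. After pooling and extraction in PBS with 0.5% NP-40 at 4°C, soluble protein from a 21,000xg, 90 min spin was quantified by TMTpro 16plex LC-MS/MS with channel sums equalised. Thermal stability is expressed against control samples, from duplicates, as a log2 fold change.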
In the case of KDELR1 (UniProt P24390), the log2 fold change is inactive: -0.019.
Turning to KCT2 (UniProt Q8NC54), the log2 fold change was inactive: 0.042.
With KIF21A isoform 4 (UniProt Q7Z4S6), the log2 fold change is inactive: -0.006.
As to KDM1A isoform 2 (UniProt O60341), the log2 fold change was inactive: -0.139.
With KDM1B (UniProt Q8NB78), the log2 fold change is inactive: -0.048.
The same measure, in the same setting: as for KCNK5 (UniProt O95279), the figure is inactive: -0.047; as for KLHL18 (UniProt O94889), inactive: -0.042; as for KIFBP (UniProt Q96EK5), inactive: 0.029.

Compound in a further assay: CN1CC[C@H](c2c(O)cc(O)c3c(=O)cc(-c4ccccc4Cl)oc23)[C@H](O)C1 [alvocidib]
Described as above. A digest of the protocol: as §1
Consider JOSD1 (UniProt Q15040), for which the log2 fold change is inactive: -0.118.
On to KLHL42 (UniProt Q9P2K6), for which the log2 fold change is inactive: -0.029.
KMT2E (UniProt Q8IZD2): the log2 fold change was inactive: -0.052.
For KDF1 (UniProt Q8NAX2), the log2 fold change is inactive: 0.024.
For the target KNOP1 (UniProt Q1ED39), the log2 fold change is inactive: 0.404.
Still for that read-out and setting: as for KIF4A (UniProt O95239), the figure is inactive: -0.223; as for KIAA0754 (UniProt O94854), inactive: 0; as for KPTN (UniProt Q9Y664), inactive: -0.005.
Still for that read-out and setting: as for KIAA1755 (UniProt Q5JYT7), the figure is inactive: -0.036.

Compound in another assay: CN1CCc2c(c3ccccc3n2Cc2ccc(C(=O)NO)cc2)C1 [Tubastatin A]
The description is as above. An outline of the steps: as §1
Regarding KRAS isoform 2 (UniProt P01116), the log2 fold change is inactive: -0.036.
In the case of KPNB1 (UniProt Q14974), the log2 fold change is inactive: 0.031.
Consider KPNA4 (UniProt O00629), for which the log2 fold change is inactive: -0.017.
In the case of KCNH2 (UniProt Q12809), the log2 fold change was inactive: 0.213.
For KIF3B (UniProt O15066), the log2 fold change is inactive: 0.002.
For the target KLHL42 (UniProt Q9P2K6), the log2 fold change was inactive: 0.019.
On the same count and under the same terms, as for KDM5D isoform 3 (UniProt Q9BY66), the figure is active: -0.451; as for KIDINS220 isoform 2 (UniProt Q9ULH0), inactive: -0.042.
For the target KISS1R (UniProt Q969F8), the log2 fold change was inactive: 0.
Still for that read-out and setting: as for KMT2C isoform 3 (UniProt Q8NEZ4), the figure is inactive: -0.029; as for KNOP1 (UniProt Q1ED39), inactive: 0.161; as for JMJD6 isoform 3 (UniProt Q6NYC1), inactive: -0.122.
With KIF11 (UniProt P52732), the log2 fold change is inactive: 0.05.
As to KIF4A (UniProt O95239), the log2 fold change is inactive: 0.089.
The same measure, in the same setting: as for JAK3 (UniProt P52333), the figure is inactive: -0.016; as for KIAA0754 (UniProt O94854), inactive: -0.005; as for KIAA1324L (UniProt A8MWY0), inactive: -0.017.
The same measure, in the same setting: as for KPTN (UniProt Q9Y664), the figure is inactive: 0.
Take KCTD10 (UniProt Q9H3F6): the log2 fold change is inactive: 0.071.
KLC2 (UniProt Q9H0B6): the log2 fold change is inactive: 0.086.
For KDM3B (UniProt Q7LBC6), the log2 fold change was inactive: -0.01.
Same read-out and setting: as for KNTC1 (UniProt P50748), the figure is inactive: 0.018; as for KDELR1 (UniProt P24390), inactive: -0.168; as for KCT2 (UniProt Q8NC54), inactive: -0.003.
With KIF21A isoform 4 (UniProt Q7Z4S6), the log2 fold change is inactive: 0.094.
Consider KDM1A isoform 2 (UniProt O60341), for which the log2 fold change is inactive: 0.127.
As for KDM1B (UniProt Q8NB78), the log2 fold change was inactive: 0.04.
For KIAA1755 (UniProt Q5JYT7), the log2 fold change is inactive: -0.029.
As for KLHL18 (UniProt O94889), the log2 fold change is inactive: 0.144.
Still for that read-out and setting: as for KIFBP (UniProt Q96EK5), the figure is inactive: -0.01.

Compound in a further assay: CNC(=O)C1=CC=CC=C1NC2=NC(=NC=C2Cl)NC3=C(C=C(C=C3)N4CCOCC4)OC
Described as above. An outline of the steps: as §1
For the target KRAS isoform 2 (UniProt P01116), the log2 fold change was inactive: 0.027.
Take KPNB1 (UniProt Q14974): the log2 fold change is inactive: 0.043.
Same read-out and setting: as for KPNA4 (UniProt O00629), the figure is inactive: -0.052.
For JOSD1 (UniProt Q15040), the log2 fold change was inactive: -0.064.
Consider KCNH2 (UniProt Q12809), for which the log2 fold change is inactive: -0.221.
On the same count and under the same terms, as for KIF3B (UniProt O15066), the figure is inactive: 0.069; as for KMT2E (UniProt Q8IZD2), inactive: 0.233.
In the case of KDM5D isoform 3 (UniProt Q9BY66), the log2 fold change is inactive: 0.026.
On the same count and under the same terms, as for KDF1 (UniProt Q8NAX2), the figure is inactive: -0.193; as for KISS1R (UniProt Q969F8), inactive: -0.019; as for KMT2C isoform 3 (UniProt Q8NEZ4), inactive: 0.009.
Still for that read-out and setting: as for KNOP1 (UniProt Q1ED39), the figure is inactive: -0.194; as for JMJD6 isoform 3 (UniProt Q6NYC1), inactive: 0.081; as for JMJD7 (UniProt P0C870), inactive: -0.041.
Same read-out and setting: as for KIF11 (UniProt P52732), the figure is inactive: 0.275.
JAK3 (UniProt P52333): the log2 fold change is inactive: 0.116.
On to KBTBD7 (UniProt Q8WVZ9), for which the log2 fold change is inactive: -0.055.
On the same count and under the same terms, as for KIAA1324L (UniProt A8MWY0), the figure is inactive: -0.014; as for KPTN (UniProt Q9Y664), inactive: -0.031; as for KCTD10 (UniProt Q9H3F6), inactive: -0.011.
Same read-out and setting: as for KLC2 (UniProt Q9H0B6), the figure is inactive: -0.017; as for KDM3B (UniProt Q7LBC6), inactive: 0.072; as for KNTC1 (UniProt P50748), inactive: 0.033.
As for KDELR1 (UniProt P24390), the log2 fold change was inactive: 0.078.
On the same count and under the same terms, as for KCT2 (UniProt Q8NC54), the figure is inactive: 0.096.
Turning to KIF21A isoform 4 (UniProt Q7Z4S6), the log2 fold change is inactive: 0.001.
For KDM1A isoform 2 (UniProt O60341), the log2 fold change was inactive: -0.032.
With KDM1B (UniProt Q8NB78), the log2 fold change is inactive: -0.013.
KIAA1755 (UniProt Q5JYT7): the log2 fold change is inactive: -0.009.
Turning to KCNK5 (UniProt O95279), the log2 fold change was inactive: -0.05.
As to KLHL18 (UniProt O94889), the log2 fold change was inactive: -0.077.
Regarding KIFBP (UniProt Q96EK5), the log2 fold change is inactive: 0.02.
